Data reported in paper PMC4199493.
Results are given in words; binding and its absence hold for the method and conditions named. For some assays here: Binding seen in cells or lysates may run through a third protein. Some entries that bind do so weakly or less than the wild type. For some assays here: Tags and fused reporters may be left off the sequences shown.

Legend:
[1] = target: T1, AtWIP1 (Arabidopsis thaliana) (UniProt Q8GXA4); experiment: two-hybrid; Gal4 fusions in pGADT7-GW and pGBKT7-GW, each protein as bait or as prey, mating of the AH109 and Y187 yeast strains; cells spotted on selective medium
T1 sequence: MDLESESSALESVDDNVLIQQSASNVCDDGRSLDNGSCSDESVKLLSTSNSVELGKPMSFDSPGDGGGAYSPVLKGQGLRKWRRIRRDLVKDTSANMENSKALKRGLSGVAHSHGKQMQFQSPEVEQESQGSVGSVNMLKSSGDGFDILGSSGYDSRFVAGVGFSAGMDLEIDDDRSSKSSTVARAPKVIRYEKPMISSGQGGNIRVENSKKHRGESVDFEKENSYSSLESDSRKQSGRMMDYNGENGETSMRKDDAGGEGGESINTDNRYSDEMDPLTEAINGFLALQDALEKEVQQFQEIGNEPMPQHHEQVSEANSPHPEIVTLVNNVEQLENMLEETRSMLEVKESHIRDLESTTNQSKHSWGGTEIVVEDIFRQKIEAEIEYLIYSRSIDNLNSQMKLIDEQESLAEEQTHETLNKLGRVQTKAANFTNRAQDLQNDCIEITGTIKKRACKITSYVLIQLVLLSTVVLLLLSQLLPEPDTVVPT

[2] = target: T2, YFP^N-AtWIP1 (Arabidopsis thaliana) (UniProt Q8GXA4); experiment: split reporter; split YFP fusions (pBiFP vectors) transiently co-expressed in N. benthamiana leaves by Agrobacterium infiltration, with the P19 suppressor; all eight compatible combinations assayed; YFP fluorescence by confocal microscopy three days after infiltration
T2 sequence: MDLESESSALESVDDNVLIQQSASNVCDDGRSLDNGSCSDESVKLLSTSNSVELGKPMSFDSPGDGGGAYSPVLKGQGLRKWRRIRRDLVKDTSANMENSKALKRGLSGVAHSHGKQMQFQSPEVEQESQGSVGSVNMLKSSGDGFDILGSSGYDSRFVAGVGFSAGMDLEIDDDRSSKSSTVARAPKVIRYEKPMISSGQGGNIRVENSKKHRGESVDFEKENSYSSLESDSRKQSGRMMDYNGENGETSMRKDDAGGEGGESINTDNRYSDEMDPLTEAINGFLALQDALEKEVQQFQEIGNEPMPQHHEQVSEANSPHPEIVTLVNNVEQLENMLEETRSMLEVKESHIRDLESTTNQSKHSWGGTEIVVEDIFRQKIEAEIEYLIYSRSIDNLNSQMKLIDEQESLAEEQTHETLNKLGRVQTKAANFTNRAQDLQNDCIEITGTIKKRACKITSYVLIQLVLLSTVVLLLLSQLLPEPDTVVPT

[3] = target: T3, AtSUN1 (Arabidopsis thaliana) (UniProt Q9FF75); experiment: two-hybrid; Gal4 fusions in pGADT7-GW and pGBKT7-GW, each protein as bait or as prey, mating of the AH109 and Y187 yeast strains; cells spotted on selective medium
T3 sequence: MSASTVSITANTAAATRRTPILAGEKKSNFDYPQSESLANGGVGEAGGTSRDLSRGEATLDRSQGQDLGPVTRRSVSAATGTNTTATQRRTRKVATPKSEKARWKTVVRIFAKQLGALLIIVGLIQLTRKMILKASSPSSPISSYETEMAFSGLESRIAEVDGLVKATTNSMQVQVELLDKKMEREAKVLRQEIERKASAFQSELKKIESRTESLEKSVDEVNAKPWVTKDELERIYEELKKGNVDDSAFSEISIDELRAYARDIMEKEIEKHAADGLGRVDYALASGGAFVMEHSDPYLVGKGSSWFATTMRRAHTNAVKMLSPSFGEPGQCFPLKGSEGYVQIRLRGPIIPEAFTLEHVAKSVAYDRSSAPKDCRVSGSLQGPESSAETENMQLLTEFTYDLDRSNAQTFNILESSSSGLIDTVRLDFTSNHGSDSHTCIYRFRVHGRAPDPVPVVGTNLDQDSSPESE

[4] = target: T4, AtSUN2 (Arabidopsis thaliana) (UniProt Q9SG79); experiment: as above
T4 sequence: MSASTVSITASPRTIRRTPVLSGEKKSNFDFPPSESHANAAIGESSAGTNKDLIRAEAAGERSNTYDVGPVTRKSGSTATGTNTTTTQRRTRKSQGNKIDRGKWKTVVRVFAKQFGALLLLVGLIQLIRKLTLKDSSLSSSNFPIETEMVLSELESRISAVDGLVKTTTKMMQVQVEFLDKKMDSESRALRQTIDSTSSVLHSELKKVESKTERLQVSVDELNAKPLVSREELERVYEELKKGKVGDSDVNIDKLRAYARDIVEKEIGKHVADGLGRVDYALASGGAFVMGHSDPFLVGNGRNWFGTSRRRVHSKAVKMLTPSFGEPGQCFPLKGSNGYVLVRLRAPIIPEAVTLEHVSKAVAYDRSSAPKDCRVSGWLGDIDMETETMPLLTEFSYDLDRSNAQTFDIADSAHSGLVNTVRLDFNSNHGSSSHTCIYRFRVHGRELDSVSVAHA

| Binder | binding [1] | binding [2] | binding [3] | binding [4] |
| --- | --- | --- | --- | --- |
| AtPSS1 (protein, UniProt Q8GW44 1-465) MSNVTVCARFRPRSSKEMRDPSRDGVCARPIDAETFVFQDDKEDEFTFSLDRVFYEDSTQAAVYEFLALPIMRDAVNGINGTIITYGQTGAGKTYSMEGPGIQDCDEHNKGLLPRVVHGMFEQISSSNDIARYTVKLSMVEIYMEKVRDLLDLSKANIQIKENKTQGILLSGVTEVPVSDSVEALQHLCTGLANRAVGETQMNMSSSRSHCAYLFTIQQDSVKDKRVKTGKLILVDLAGSEKADKTGAEGRVLEEAKTINKSLSALGNVINALTSGPSSKGNHIPYRDSKLTRILQDALGGNSRMALLCCCSPSTLNASETLSTLRFGMRAKHIKASPRASEVKSAKAQEEPSSVTKDEKCGRILEKMKERMSNEDIKMLEDVFIQEGIIFSLDSMAEVETVYEDIVSKTIQSLQQAVDELQQKVKKLEAENIGIQEQALRNHEPGSVGKMSRFISSWYASFFTS | binds |  |  |  |
| YFP^C-AtPSS1 (protein, UniProt Q8GW44 1-465) MSNVTVCARFRPRSSKEMRDPSRDGVCARPIDAETFVFQDDKEDEFTFSLDRVFYEDSTQAAVYEFLALPIMRDAVNGINGTIITYGQTGAGKTYSMEGPGIQDCDEHNKGLLPRVVHGMFEQISSSNDIARYTVKLSMVEIYMEKVRDLLDLSKANIQIKENKTQGILLSGVTEVPVSDSVEALQHLCTGLANRAVGETQMNMSSSRSHCAYLFTIQQDSVKDKRVKTGKLILVDLAGSEKADKTGAEGRVLEEAKTINKSLSALGNVINALTSGPSSKGNHIPYRDSKLTRILQDALGGNSRMALLCCCSPSTLNASETLSTLRFGMRAKHIKASPRASEVKSAKAQEEPSSVTKDEKCGRILEKMKERMSNEDIKMLEDVFIQEGIIFSLDSMAEVETVYEDIVSKTIQSLQQAVDELQQKVKKLEAENIGIQEQALRNHEPGSVGKMSRFISSWYASFFTS |  | binds |  |  |
| AtWIP1 (protein, UniProt Q8GXA4 1-489) MDLESESSALESVDDNVLIQQSASNVCDDGRSLDNGSCSDESVKLLSTSNSVELGKPMSFDSPGDGGGAYSPVLKGQGLRKWRRIRRDLVKDTSANMENSKALKRGLSGVAHSHGKQMQFQSPEVEQESQGSVGSVNMLKSSGDGFDILGSSGYDSRFVAGVGFSAGMDLEIDDDRSSKSSTVARAPKVIRYEKPMISSGQGGNIRVENSKKHRGESVDFEKENSYSSLESDSRKQSGRMMDYNGENGETSMRKDDAGGEGGESINTDNRYSDEMDPLTEAINGFLALQDALEKEVQQFQEIGNEPMPQHHEQVSEANSPHPEIVTLVNNVEQLENMLEETRSMLEVKESHIRDLESTTNQSKHSWGGTEIVVEDIFRQKIEAEIEYLIYSRSIDNLNSQMKLIDEQESLAEEQTHETLNKLGRVQTKAANFTNRAQDLQNDCIEITGTIKKRACKITSYVLIQLVLLSTVVLLLLSQLLPEPDTVVPT |  |  | binds | binds |
| AtWIP2 (protein, UniProt Q9FH18 1-509) MDLESESSVLESVEDNNGLIGDLDKELNSPVETSPLISKGFGLRKWKRRLRRDLVKDDTSVSMENSKALKRVLSGLVDPNAKQMHLPGPEVRQDSVGSVGSVNSVVGFVMGGESYGNGLAFAAGVDSDNSEDRSSTMSHSWDKHRGKVSGGKSVISSGDSSQQRKSSVEKSNKLRGERIKIEKENSHSSMESADSRSSNFVFMQGASYSLSSREQGGRRMMDYDDENSDHDAHTSKRKDNVEEEEEETEDYSQGDCVEESQIKSNGSSDNLDPLIVAVNSFQTLQEALQKELQKFQELGKEEPITSLHDGGESSSCIHAGHEGASEASSSYRFGSEKMGEMELTSLDSEILNLVNNVEHLEIKLEEAKRILEVKETQIRELESTINVSETCNGGTEIGIEDIFQQKVEAEIEYIIFSRSVGNLKRRIKLIEEEKTLGLSKLDKAETKAENLKNQAQDLQNHCVEITEIQEVECLKKRAFKTTRCLLLQLGLLFILYYSLLPEPEIAVPT |  |  | binds | binds |
| AtWIP3 (protein, UniProt Q94AV5 1-459) MNESVPDSVEDNGNSVPANGLLVLPDNDHEEGGVGSPQRSNSVESPGGSVHSTRKGFGLKKWRRIKRDGPVRDEAAPVDDGSKLLKRGLAGLVNPPSKHVEFSSVEARQSSEGSVGSVNMVHHPGVANGFSPDIGCMFAVGQAFEKSEEHSGNTIGGKNVVGGKVVSGSQEKLWSDTIKRASEERGDIEKEKPCSSLDSDLRSSDFVFSTGSVSVGNHGEKDERLTMNYIGGFSNEGQVKEEVQTYSRSENGNKEDDGESKKNNNHWADKDALADSIRSFAVLQEVLWKEVQSFQELGKESVLLHSNTDELSSDQPSHQNCKEDNSTSSGSKALILKEKVKLLEHKLEEARAALEAKEARIQELENSKIESELECIFQRKIETEIEHLMLTRSLSSLQVLQETKKLHSLKEDPVSNRGNILGKTCKLGFYILTQLILLVSILRFLVLQFSPASRLVIPT |  |  | binds | binds |
